# Assay results

From PubChem BioAssay record AID912 (NCATS, 2007).

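A cell-based FRET test of anthrax lethal toxin entry, tracked through the 460 nm emission signal; the cell line is not named here.
Each compound was tested as a concentration series from about 0.0005 to 40 µM.
The number is the fitted AC50 of the 460 nm signal alone; lower values mean a more potent effect. A falling signal goes with compounds filed as inhibitors or cytotoxic, a rising one with activators or fluorescent compounds (inferred from the filed classes).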

Values are in µM.
Common to all entries: measured here: 460 nm channel.
This is a side read-out of the assay, for part of the compounds, not drawn at random.
A potency from a partial, single-point or poor curve is only a rough figure.
The first word of each remark tells which way the curve ran; it can be opposite to the aim of the assay.

C=CCOC(=O)Nc1c(C(=O)OC)[nH]c2ccccc12 gave AC50 6.31 µM (falling, partial curve).
COc1cc(C(=O)NCCC(=O)NC2CCCCCCC2)cc(OC)c1OC gave AC50 2.512 µM (falling, single point).
CC1CCC(C(C)C)C(OC(=O)CSc2n[nH]c(=O)[nH]c2=O)C1 (stereo unspecified) gave AC50 0.05012 µM (rising, full curve).
COc1ccc(C2=CC(c3ccc(Cl)cc3)n3cnnc3N2)cc1OC (stereo unspecified) gave AC50 12.59 µM (rising, partial curve).
CCCCCC(=O)Nc1ccc2oc(-c3cccnc3)nc2c1 gave AC50 0.003981 µM (falling, full curve, poor fit).
Cc1nn(-c2ccccc2)c2c1P(=O)(O)/C(=C1\N(C)c3ccccc3C1(C)C)C=N2 gave AC50 10 µM (rising, partial curve).
CCOC(=O)CCc1c(C)nc2cc(C3CCCN(C(=O)OC(C)(C)C)C3)[nH]n2c1=O (stereo unspecified) gave AC50 0.5012 µM (falling, single point).
O=C(c1cc(C(F)(F)F)cc(C(F)(F)F)c1)N1CCC2(CCCN(Cc3ccccc3)C2)CC1 gave AC50 5.012 µM (falling, single point).
Cc1ccc(-c2nc(N)n(S(C)(=O)=O)n2)cc1 gave AC50 0.3162 µM (falling, full curve, poor fit).
Nc1c(S(=O)(=O)c2cccs2)c2nc3ccccc3nc2n1CC1CCCO1 (stereo unspecified) gave AC50 0.2512 µM (rising, full curve).
CCC1(N(C(C)=O)c2ccc(OC)cc2)C(=O)c2ccccc2C1=O gave AC50 3.162 µM (rising, single point).
CC(C)Cn1c(-c2cccs2)nc2nc3ccccc3nc21 gave AC50 25.12 µM (rising, single point).
CS(=O)(=O)c1ccc2nc(NC(=O)C3CCCCC3)sc2c1 gave AC50 12.59 µM (falling, partial curve).
COP(=S)(OC)Oc1ccc(SC)c(C)c1 gave AC50 15.85 µM (falling, partial curve, poor fit).
CC(C)n1c(SCC(=O)N2c3ccccc3Sc3ccccc32)nc2c1c(=O)n(C)c(=O)n2C gave AC50 2.512 µM (rising, partial curve).
Cc1noc(C)c1COc1ccc(C(=O)OCc2nnc(-c3ccc(Cl)cc3)o2)cc1 gave AC50 0.01 µM (falling, full curve).
Cn1c(CC(=O)Nc2ccccc2)nnc1SCC(=O)c1ccccc1 gave AC50 5.012 µM (falling, single point).
Cc1ccc(-c2noc(-c3ccccc3Br)n2)cc1 gave AC50 5.012 µM (falling, partial curve).
COC(=O)C/C=C\[C@@H](C)[C@@H](/C=N\O[C@@H](C)c1cc(-c2c(C)cc(C)cc2C)no1)NS(=O)(=O)c1ccc(C)cc1 gave AC50 5.012 µM (falling, single point).
CCN(CC)c1ccc(C(=O)Nc2cccc(F)c2)cc1 gave AC50 10 µM (falling, partial curve).
Cc1ccc(C[C@H](Cc2nc3ccccc3[nH]2)c2nc3ccccc3[nH]2)cc1 gave AC50 25.12 µM (falling, single point).
CC1CCCC(C)N1CCCNC(=O)c1cc2c(=O)n(C)c3ccccc3c2n1C (stereo unspecified) gave AC50 5.012 µM (falling, full curve).
Cc1cccc(NC(=O)CCCCCN2C(=O)c3ccccc3C2=O)n1 gave AC50 0.01995 µM (falling, full curve, poor fit).
COc1cccc(CSCC(=O)O)c1 gave AC50 1 µM (rising, single point).
COc1ccc(-n2c(=O)c(-c3ccc(F)cc3)nc3cnc(N4CCOCC4)nc32)cc1 gave AC50 3.162 µM (rising, full curve).
CCCOc1ccc(C2c3c(oc4ccccc4c3=O)C(=O)N2CCN(CC)CC)cc1OC (stereo unspecified) gave AC50 0.003162 µM (rising, full curve).
COCCn1c(=O)c(C)nc2cnc(Nc3cccc(OC)c3)nc21 gave AC50 31.62 µM (falling, partial curve).
CCN1C(=O)c2cccc3c(S(=O)(=O)Nc4ncccc4C)ccc1c23 gave AC50 10 µM (rising, partial curve).
CN1CCN(c2ccc(NC(=O)Cc3ccccc3)cc2)CC1 gave AC50 1.995 µM (falling, full curve, poor fit).
c1ccc(Cc2nn3c(Cn4nnc5ccccc54)nnc3s2)cc1 gave AC50 6.31 µM (rising, partial curve).
Cc1ccc(-n2cnc3c(sc4nccc(N(C)C)c43)c2=O)cc1 gave AC50 10 µM (falling, partial curve).
O=c1c(CCc2ccccc2)nc2cnc(N3CCNCC3)nc2n1C1CC1 gave AC50 25.12 µM (rising, single point).
COc1ccccc1OCCn1c(=O)sc2ccccc21 gave AC50 0.1 µM (rising, full curve, poor fit).
Cc1cc(S(=O)(=O)N(Cc2ccc(F)cc2)CC2CCCO2)ccc1-n1cnnn1 (stereo unspecified) gave AC50 5.012 µM (rising, single point).
O=C(CSC1=NS(=O)(=O)c2ccccc21)Nc1ccccc1 gave AC50 31.62 µM (falling, single point).
O=C(COc1ccccc1)N1CCN(CC(O)COc2ccccc2)CC1 (stereo unspecified) gave AC50 5.012 µM (falling, single point).
CC(C)C(=O)Nc1nnc(SCC(=O)NCc2cccs2)s1 gave AC50 15.85 µM (rising, partial curve).

Some entries from above, unchanged:

For COc1cccc(CSCC(=O)O)c1 the result was AC50 1 µM (rising, single point).
For Nc1c(S(=O)(=O)c2cccs2)c2nc3ccccc3nc2n1CC1CCCO1 (stereo unspecified) the result was AC50 0.2512 µM (rising, full curve).
For COC(=O)C/C=C\[C@@H](C)[C@@H](/C=N\O[C@@H](C)c1cc(-c2c(C)cc(C)cc2C)no1)NS(=O)(=O)c1ccc(C)cc1 the result was AC50 5.012 µM (falling, single point).
For CC(C)Cn1c(-c2cccs2)nc2nc3ccccc3nc21 the result was AC50 25.12 µM (rising, single point).